# Test results published in publication doi:10.1101/2021.12.06.471409.
# The chains behind the UniProt entries cited, without tags or fusion partners.
# UniProt Q96S21, whole entry: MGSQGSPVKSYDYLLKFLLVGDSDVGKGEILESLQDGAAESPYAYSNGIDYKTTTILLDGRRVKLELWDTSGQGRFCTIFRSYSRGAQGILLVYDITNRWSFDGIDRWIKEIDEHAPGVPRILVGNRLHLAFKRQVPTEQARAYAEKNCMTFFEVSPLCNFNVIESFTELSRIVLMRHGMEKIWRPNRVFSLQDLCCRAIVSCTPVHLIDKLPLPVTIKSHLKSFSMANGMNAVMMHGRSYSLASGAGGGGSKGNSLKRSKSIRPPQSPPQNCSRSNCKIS
# These are yes or no findings as the source states them, for the method shown. In cells and extracts the contact can be indirect. Some results given as binding are weak or reduced against the parent protein; the word gives no strength. Where a sequence is shown, tags or fusion partners need not be part of it.
# Key:
# [1] = molecular target: T1, FLAG-ANKRD52 (human) (UniProt Q8NB46); test: co-IP
# T1 sequence: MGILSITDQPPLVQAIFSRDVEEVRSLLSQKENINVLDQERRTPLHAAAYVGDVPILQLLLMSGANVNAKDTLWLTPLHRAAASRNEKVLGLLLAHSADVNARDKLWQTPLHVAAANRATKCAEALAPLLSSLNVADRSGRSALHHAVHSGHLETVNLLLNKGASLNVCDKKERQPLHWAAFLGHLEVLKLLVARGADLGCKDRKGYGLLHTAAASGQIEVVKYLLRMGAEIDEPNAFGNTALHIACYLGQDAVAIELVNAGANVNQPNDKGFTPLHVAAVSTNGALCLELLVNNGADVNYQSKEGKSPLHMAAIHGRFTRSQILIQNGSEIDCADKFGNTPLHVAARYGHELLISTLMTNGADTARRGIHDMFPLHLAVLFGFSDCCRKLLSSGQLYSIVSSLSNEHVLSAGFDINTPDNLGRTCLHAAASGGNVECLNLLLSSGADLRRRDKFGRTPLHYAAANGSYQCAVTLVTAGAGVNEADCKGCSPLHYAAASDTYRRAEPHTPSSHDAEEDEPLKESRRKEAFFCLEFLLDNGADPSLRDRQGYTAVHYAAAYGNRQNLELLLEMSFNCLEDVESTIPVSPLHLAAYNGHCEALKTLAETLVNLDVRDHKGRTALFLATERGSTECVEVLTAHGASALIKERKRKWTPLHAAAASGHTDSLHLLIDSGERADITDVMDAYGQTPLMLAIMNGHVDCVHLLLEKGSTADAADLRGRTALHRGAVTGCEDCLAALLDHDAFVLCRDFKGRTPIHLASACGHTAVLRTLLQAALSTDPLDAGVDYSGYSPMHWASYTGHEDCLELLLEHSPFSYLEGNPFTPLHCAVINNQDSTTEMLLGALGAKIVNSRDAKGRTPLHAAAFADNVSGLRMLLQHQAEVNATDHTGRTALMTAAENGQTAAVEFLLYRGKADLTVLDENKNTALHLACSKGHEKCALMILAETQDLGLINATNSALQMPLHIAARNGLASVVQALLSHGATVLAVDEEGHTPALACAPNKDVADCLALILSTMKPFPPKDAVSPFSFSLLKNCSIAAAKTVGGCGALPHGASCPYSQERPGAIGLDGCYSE
# [2] = molecular target: T2, FLAG-PP6R1 (human) (UniProt Q9UPN7); test: co-IP
# T2 sequence: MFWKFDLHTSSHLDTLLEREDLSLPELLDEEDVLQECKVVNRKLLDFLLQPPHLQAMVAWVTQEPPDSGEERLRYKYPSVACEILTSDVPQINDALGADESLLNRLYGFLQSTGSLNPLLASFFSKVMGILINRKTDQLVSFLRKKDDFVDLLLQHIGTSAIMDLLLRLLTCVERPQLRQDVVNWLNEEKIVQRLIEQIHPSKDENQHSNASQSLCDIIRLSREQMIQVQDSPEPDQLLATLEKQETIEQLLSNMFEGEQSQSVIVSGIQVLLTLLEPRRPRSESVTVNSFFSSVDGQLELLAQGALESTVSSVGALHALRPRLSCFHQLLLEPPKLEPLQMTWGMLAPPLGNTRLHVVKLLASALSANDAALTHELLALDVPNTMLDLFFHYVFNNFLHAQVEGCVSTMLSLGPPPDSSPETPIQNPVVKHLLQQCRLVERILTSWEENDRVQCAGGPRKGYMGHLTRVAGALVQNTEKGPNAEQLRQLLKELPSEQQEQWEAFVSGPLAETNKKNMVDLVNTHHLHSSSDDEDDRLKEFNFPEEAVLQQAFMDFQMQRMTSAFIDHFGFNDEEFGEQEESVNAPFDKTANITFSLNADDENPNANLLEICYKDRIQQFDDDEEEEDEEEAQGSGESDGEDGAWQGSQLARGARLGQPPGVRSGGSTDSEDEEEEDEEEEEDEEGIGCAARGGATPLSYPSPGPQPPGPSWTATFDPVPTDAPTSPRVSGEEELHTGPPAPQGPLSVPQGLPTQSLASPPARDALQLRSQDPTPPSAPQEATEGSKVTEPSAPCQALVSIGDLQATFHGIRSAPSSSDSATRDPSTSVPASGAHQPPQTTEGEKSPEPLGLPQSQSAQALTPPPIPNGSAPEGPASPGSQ
substance,measurement,setting,value
HA-Rab40c (from UniProt Q96S21 1-281),binding,[1],binds
same,binding,[2],binds
